Values of other authors in patent US4835154A, “1-aralykyl-5-piperazinylmethyl-2-mercaptoimidazoles and 2-alkylthioimidazoles and their use as dopamine-βhydroxylase inhibitors” (SmithKline Beckman Corporation, priority 1987, dated 1989).
At least one compound was matched to its structure with a doubt left.

Molecular target: T1, DBH (Homo sapiens, UniProt P09172)
T1 sequence (P09172 1-617): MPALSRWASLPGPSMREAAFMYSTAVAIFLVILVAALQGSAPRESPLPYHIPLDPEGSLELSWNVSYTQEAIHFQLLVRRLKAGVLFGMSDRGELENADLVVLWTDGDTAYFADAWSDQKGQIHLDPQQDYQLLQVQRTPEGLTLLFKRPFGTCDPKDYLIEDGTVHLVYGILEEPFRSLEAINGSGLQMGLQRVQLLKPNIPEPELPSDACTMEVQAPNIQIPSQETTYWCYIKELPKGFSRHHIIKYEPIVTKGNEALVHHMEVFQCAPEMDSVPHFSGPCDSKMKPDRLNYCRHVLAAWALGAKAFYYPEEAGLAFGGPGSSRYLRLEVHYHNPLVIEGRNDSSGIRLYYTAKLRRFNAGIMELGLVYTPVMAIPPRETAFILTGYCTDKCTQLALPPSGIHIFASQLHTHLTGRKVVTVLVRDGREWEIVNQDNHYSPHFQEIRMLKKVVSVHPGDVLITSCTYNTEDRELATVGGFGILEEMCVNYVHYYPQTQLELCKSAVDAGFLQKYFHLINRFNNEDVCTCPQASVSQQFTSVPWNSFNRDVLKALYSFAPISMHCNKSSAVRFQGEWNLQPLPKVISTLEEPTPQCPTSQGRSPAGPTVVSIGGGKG
Conditions: cited from earlier work

O=C(O)c1ccc(-c2ccccc2)cn1 [phenylpicolinic acid]
inhibitory activity relative to fusaric acid (Runti et al., 1980): twice the inhibitory activity of fusaric acid
DBH inhibition (in words) (literature reports): inhibit DBH
